Data from the supplement of paper PMC12067093, “Discovery and optimisation of a covalent ligand for TRIM25 and its application to targeted protein ubiquitination” (Chemical Science, 2025).
This is one part of the list.
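Note: competitive chemoproteomic profiling in live THP-1 cells with an iodoacetamide desthiobiotin (IA-DTB) probe, comparing probe-labelled peptide intensities in compound-treated cells against DMSO-treated controls.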

The chains behind the UniProt entries cited, without tags or fusion partners. Where a name states a change or a piece, a line headed by the entry shows the natural chain unless it says otherwise.
UniProt Q9Y2U5: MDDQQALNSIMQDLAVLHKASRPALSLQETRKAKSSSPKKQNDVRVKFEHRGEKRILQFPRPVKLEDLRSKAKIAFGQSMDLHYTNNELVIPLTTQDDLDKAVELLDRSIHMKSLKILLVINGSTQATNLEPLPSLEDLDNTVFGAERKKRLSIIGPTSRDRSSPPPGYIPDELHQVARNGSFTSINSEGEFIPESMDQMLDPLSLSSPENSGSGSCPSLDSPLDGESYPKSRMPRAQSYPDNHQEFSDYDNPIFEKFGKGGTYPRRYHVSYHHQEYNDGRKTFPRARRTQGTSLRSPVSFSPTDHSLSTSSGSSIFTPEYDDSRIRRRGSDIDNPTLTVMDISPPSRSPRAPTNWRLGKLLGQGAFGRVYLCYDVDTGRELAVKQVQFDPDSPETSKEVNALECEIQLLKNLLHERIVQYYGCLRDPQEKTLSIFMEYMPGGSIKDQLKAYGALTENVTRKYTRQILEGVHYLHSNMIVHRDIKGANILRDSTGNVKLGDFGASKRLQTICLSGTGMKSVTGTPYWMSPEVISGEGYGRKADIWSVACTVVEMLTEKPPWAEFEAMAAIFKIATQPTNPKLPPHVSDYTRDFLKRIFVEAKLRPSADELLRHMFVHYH
UniProt Q5VT66: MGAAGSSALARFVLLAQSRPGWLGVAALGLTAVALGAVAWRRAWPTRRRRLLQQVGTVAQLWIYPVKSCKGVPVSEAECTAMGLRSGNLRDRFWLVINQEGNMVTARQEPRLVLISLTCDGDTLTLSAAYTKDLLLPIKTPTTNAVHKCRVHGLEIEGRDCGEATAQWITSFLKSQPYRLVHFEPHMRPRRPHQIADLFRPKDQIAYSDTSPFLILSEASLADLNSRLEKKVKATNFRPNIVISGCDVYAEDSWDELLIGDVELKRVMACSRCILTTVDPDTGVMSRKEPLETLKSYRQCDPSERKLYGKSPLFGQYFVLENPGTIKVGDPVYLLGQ
UniProt P55145: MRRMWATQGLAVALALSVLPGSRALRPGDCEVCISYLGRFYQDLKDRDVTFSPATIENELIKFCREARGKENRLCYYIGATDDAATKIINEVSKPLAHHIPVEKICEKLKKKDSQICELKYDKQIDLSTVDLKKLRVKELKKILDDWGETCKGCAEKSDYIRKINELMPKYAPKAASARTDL
UniProt O60449: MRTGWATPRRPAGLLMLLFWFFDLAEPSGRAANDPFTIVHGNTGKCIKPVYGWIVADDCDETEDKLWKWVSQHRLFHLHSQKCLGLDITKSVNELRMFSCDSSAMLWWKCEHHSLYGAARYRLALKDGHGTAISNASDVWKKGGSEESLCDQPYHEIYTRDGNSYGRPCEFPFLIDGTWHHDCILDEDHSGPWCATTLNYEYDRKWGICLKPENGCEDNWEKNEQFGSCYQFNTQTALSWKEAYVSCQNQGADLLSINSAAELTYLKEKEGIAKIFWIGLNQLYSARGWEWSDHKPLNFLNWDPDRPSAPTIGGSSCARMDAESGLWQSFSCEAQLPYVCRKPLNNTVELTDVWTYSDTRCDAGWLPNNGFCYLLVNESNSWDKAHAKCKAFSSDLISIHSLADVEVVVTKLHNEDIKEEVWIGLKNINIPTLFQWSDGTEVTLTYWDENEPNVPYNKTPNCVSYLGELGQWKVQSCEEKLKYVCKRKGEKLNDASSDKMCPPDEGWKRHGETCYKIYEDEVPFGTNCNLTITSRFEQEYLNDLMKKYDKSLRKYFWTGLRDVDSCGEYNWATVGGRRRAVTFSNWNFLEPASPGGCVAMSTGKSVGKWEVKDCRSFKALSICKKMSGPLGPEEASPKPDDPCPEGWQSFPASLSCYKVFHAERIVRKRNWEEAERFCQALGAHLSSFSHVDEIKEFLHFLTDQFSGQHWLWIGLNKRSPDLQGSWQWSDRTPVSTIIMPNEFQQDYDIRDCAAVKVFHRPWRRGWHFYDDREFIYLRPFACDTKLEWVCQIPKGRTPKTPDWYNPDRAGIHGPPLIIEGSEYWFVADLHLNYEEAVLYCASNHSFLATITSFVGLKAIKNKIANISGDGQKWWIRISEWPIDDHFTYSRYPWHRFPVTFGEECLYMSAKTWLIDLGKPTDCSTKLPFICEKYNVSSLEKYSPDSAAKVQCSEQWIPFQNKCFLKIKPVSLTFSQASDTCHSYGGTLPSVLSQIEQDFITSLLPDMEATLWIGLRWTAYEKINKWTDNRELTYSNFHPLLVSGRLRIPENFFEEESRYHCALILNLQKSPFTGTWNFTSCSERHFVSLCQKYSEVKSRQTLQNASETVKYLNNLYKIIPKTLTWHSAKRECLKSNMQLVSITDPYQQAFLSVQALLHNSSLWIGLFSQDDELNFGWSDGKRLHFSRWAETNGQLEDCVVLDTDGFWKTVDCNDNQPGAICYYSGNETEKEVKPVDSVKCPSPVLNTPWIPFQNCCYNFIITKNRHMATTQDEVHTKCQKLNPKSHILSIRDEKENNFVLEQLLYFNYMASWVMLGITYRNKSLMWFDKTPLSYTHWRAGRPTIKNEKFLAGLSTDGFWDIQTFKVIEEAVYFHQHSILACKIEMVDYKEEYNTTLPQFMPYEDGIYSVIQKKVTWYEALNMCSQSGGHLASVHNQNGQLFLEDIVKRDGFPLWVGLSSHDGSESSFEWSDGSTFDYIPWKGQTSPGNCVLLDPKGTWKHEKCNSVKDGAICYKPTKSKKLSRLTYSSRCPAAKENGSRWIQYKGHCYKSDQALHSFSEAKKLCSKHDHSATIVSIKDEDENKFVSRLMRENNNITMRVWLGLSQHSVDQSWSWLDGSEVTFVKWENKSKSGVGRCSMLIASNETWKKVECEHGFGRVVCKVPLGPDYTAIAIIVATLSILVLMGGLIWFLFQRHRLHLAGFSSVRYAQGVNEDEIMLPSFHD
UniProt Q9Y4F3: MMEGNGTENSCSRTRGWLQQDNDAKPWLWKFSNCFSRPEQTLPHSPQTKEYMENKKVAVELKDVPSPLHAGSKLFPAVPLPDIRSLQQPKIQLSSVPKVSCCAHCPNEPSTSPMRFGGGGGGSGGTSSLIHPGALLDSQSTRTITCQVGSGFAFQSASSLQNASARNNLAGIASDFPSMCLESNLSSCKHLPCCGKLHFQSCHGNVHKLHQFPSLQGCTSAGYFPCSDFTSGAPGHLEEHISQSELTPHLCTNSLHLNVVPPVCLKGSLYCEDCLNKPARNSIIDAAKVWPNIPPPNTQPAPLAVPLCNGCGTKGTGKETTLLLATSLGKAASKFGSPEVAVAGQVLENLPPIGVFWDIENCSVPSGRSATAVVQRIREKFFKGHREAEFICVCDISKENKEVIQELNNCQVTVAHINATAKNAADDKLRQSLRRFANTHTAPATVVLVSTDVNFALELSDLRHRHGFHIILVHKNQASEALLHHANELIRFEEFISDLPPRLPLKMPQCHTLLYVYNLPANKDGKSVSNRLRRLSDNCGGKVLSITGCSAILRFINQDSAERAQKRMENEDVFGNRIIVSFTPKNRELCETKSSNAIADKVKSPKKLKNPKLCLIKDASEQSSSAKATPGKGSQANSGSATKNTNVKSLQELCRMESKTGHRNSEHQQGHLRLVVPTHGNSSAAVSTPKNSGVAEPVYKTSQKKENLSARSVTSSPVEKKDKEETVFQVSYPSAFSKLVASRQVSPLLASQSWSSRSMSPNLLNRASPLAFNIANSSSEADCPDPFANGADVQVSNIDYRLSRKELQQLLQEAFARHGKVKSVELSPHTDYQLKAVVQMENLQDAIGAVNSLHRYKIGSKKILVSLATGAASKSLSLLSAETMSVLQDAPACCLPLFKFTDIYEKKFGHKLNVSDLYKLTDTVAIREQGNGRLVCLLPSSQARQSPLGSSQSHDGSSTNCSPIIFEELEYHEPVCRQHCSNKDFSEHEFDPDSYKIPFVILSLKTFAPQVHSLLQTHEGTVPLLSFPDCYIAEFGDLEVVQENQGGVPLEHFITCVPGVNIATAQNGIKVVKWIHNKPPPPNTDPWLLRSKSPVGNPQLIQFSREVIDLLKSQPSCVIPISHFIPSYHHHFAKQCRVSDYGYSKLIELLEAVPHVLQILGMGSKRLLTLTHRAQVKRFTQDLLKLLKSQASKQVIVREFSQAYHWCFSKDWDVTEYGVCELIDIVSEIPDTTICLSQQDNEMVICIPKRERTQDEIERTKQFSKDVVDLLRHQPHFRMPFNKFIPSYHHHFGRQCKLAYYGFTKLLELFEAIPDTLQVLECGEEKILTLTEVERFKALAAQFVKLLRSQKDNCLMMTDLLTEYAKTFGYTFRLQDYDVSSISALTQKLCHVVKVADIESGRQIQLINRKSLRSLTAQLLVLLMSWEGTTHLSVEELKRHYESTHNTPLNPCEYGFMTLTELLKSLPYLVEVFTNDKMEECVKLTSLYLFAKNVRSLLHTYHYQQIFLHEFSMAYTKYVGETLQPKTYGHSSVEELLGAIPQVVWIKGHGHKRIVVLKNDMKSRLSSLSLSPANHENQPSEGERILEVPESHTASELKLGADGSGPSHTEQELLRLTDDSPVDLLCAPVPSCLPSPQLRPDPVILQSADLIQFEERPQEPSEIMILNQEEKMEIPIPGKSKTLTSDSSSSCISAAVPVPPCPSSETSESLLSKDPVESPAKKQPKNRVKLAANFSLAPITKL
UniProt Q96GW9: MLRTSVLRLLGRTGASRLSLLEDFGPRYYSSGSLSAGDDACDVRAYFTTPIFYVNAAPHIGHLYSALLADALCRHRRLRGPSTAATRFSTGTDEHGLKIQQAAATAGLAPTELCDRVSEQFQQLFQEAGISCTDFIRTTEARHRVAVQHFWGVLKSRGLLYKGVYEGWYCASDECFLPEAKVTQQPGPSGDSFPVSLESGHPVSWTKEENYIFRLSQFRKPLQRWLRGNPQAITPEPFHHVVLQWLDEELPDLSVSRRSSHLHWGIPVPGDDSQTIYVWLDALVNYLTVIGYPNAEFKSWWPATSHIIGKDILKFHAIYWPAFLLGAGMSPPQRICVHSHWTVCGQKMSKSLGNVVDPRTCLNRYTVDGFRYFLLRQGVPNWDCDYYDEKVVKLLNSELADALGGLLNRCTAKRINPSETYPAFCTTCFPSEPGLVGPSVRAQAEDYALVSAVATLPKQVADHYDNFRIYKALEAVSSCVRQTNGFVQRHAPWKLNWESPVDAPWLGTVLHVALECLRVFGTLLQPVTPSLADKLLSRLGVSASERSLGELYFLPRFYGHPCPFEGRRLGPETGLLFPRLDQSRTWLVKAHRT
UniProt O95243: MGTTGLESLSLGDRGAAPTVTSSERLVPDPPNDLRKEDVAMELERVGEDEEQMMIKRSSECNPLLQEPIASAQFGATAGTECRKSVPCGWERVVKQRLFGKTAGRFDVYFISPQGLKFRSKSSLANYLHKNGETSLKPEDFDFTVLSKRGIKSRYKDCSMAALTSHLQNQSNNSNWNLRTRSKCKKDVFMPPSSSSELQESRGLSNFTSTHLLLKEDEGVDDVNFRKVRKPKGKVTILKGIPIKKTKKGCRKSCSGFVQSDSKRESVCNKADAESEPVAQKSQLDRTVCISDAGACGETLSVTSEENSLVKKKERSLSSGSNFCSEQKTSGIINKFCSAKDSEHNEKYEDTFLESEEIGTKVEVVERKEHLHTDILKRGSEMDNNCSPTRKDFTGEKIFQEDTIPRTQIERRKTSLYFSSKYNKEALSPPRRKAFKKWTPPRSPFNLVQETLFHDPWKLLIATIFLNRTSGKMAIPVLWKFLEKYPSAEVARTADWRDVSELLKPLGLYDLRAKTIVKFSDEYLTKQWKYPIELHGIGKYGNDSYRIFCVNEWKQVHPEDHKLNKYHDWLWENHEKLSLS
UniProt P27361, whole entry, looked up: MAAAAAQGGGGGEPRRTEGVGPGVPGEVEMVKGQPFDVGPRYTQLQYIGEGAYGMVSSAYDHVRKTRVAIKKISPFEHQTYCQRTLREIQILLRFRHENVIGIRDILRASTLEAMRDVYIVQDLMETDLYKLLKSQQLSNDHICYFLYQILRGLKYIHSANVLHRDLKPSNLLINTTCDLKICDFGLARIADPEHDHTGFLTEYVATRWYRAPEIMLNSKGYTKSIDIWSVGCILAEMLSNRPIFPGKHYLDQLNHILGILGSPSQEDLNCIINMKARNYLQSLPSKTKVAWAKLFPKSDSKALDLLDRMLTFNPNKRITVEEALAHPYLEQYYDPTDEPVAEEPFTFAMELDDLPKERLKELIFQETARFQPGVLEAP
UniProt P20645: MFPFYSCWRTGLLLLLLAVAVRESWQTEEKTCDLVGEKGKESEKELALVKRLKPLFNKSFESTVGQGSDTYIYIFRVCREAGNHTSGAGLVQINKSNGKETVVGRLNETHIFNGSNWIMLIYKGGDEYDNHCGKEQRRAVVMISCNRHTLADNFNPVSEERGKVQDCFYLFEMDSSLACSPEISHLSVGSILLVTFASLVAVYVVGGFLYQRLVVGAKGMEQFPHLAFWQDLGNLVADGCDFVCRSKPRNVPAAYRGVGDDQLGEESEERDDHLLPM

The targets below were run with CC1Cc2ccccc2N1C(=O)C1CCCN(C1)C(=O)CCl (mixture of isomers) [TRIM25 ligand 11 (diastereomer mixture)] (assay: probe-labelled cysteine peptide fold change vs DMSO (competition) (log2 fold change); higher = less target engagement (more negative = stronger competition)). Details: 10 µM; THP-1; incubation time: 4 h.
In the case of “MAP4K1_Q92918_494_LFNGCPLR (UniProt Q92918)”, the “probe-labelled cysteine peptide fold change” value is reported as 0.0601.
For “MAP2K1_Q02750_277_ELELMFGCQVEGDAAETPPRPR (UniProt Q02750)”, the “probe-labelled cysteine peptide fold change” value was -0.0372.
With “MAP3K2_Q9Y2U5_512_LQTICLSGTGMK (UniProt Q9Y2U5)” the “probe-labelled cysteine peptide fold change” value was 0.0721.
With “MARC1_Q5VT66_79_GVPVSEAECTAMGLR (UniProt Q5VT66)” the “probe-labelled cysteine peptide fold change” value was -0.00294.
In the case of “MARS_P56192_309_LRQWNTLYLCGTDEYGTATETK (UniProt P56192)”, the “probe-labelled cysteine peptide fold change” value is reported as -0.163.
“LYPLA1_O75608_211_TYEGMMHSSCQQEMMDVK (UniProt O75608)” was tested, and the “probe-labelled cysteine peptide fold change” value was 0.11.
With “MAP3K3_Q99759_411_EVSALECEIQLLK (UniProt Q99759)” the “probe-labelled cysteine peptide fold change” value was -0.0123.
“MAT2A_P31153_104_TCNVLVALEQQSPDIAQGVHLDR (UniProt P31153)” was tested, and the “probe-labelled cysteine peptide fold change” value was 0.0363.
For “MAP1S_Q66K74_440_VLFPGCTPPACLLDGLVR (UniProt Q66K74)”, the “probe-labelled cysteine peptide fold change” value was 0.0367.
“LUC7L_Q9NQ29_97_DLFFELDAMDHLESFIAECDRR (UniProt Q9NQ29)” was tested, and the “probe-labelled cysteine peptide fold change” value was 0.104.
For “LTN1_O94822_999_TLPSHLCTSALLSK (UniProt O94822)”, the “probe-labelled cysteine peptide fold change” value was 0.17.
For “LYST_Q99698_3586_CGVITAYTNR (UniProt Q99698)”, the “probe-labelled cysteine peptide fold change” value was 0.109.
In the case of “MANF_P55145_151_ILDDWGETCK (UniProt P55145)”, the “probe-labelled cysteine peptide fold change” value is reported as -0.0447.
“MAPK14_Q16539_162_DLKPSNLAVNEDCELK (UniProt Q16539)” was tested, and the “probe-labelled cysteine peptide fold change” value was 0.12.
For “MAP3K4_Q9Y6R4_596_CSAVSWEELK (UniProt Q9Y6R4)”, the “probe-labelled cysteine peptide fold change” value was 0.147.
With “MACF1_Q9UPN3_3173_HQISSSNECK (UniProt Q9UPN3)” the “probe-labelled cysteine peptide fold change” value was -0.0534.
For “MAZ_P56270_339_SHDGAVHKPYNCSHCGK (UniProt P56270)”, the “probe-labelled cysteine peptide fold change” value was -0.0644.
For “MATR3_P43243_296_GYPHLCSICDLPVHSNK (UniProt P43243)”, the “probe-labelled cysteine peptide fold change” value was -0.0503.
For “MAP4K4_O95819_269_FFSFIEGCLVK (UniProt O95819)”, the “probe-labelled cysteine peptide fold change” value was 0.123.
With “MACF1_Q9UPN3_4206_FEQLCLQQQEK (UniProt Q9UPN3)” the “probe-labelled cysteine peptide fold change” value was -0.0528.
For “LTA4H_P09960_8_PEIVDTCSLASPASVCR (UniProt P09960)”, the “probe-labelled cysteine peptide fold change” value was -0.161.
With “LY75_O60449_922_TWLIDLGKPTDCSTK (UniProt O60449)” the “probe-labelled cysteine peptide fold change” value was 0.0303.
For “LYPLA2_O95372_171_DLAILQCHGELDPMVPVR (UniProt O95372)”, the “probe-labelled cysteine peptide fold change” value was -0.136.
With “MARF1_Q9Y4F3_590_ELCETK (UniProt Q9Y4F3)” the “probe-labelled cysteine peptide fold change” value was -0.0221.
With “MAP1S_Q66K74_738+743_SASPHDVDLCLVSPCEFEHR (UniProt Q66K74)” the “probe-labelled cysteine peptide fold change” value was 0.0822.
With “MAP3K3_Q99759_430_IVQYYGCLR (UniProt Q99759)” the “probe-labelled cysteine peptide fold change” value was 0.011.
For “MAP1S_Q66K74_51_SWDVDPGVCNLDEQLK (UniProt Q66K74)”, the “probe-labelled cysteine peptide fold change” value was -0.0131.
With “MAP3K4_Q9Y6R4_752_LFCDIAGMLLK (UniProt Q9Y6R4)” the “probe-labelled cysteine peptide fold change” value was 0.073.
In the case of “MAP4K2_Q12851_473_VHMGACFSK (UniProt Q12851)”, the “probe-labelled cysteine peptide fold change” value is reported as -0.0544.
With “MARS2_Q96GW9_336_ICVHSHWTVCGQK (UniProt Q96GW9)” the “probe-labelled cysteine peptide fold change” value was 0.114.
With “MAP4_P27816_67_KKPCSETSQIEDTPSSKPTLLANGGHGVEGSDTTGSPTEFLEEK (UniProt P27816)” the “probe-labelled cysteine peptide fold change” value was -0.246.
For “MBD4_O95243_324_SLSSGSNFCSEQK (UniProt O95243)”, the “probe-labelled cysteine peptide fold change” value was 0.128.
“LYST_Q99698_2223_SEDDSPGDESCPR (UniProt Q99698)” was tested, and the “probe-labelled cysteine peptide fold change” value was -0.102.
With “MAP2K2_P36507_384_SEVEEVDFAGWLCK (UniProt P36507)” the “probe-labelled cysteine peptide fold change” value was -0.0101.
In the case of “LY75_O60449_782_GWHFYDDREFIYLRPFACDTK (UniProt O60449)”, the “probe-labelled cysteine peptide fold change” value is reported as 0.0664.
In the case of “MAPK3_P27361_82_ISPFEHQTYCQR (UniProt P27361)”, the “probe-labelled cysteine peptide fold change” value is reported as 0.151.
“LYN_P07948_381_AANVLVSESLMCK (UniProt P07948)” was tested, and the “probe-labelled cysteine peptide fold change” value was 0.0416.
In the case of “MAEA_Q7L5Y9_314+317_SPDCPVCSR (UniProt Q7L5Y9)”, the “probe-labelled cysteine peptide fold change” value is reported as -0.0393.
With “M6PR_P20645_145_AVVMISCNR (UniProt P20645)” the “probe-labelled cysteine peptide fold change” value was -0.116.
For “MAEA_Q7L5Y9_333_LAQPLPMAHCANSR (UniProt Q7L5Y9)”, the “probe-labelled cysteine peptide fold change” value was -0.0602.

Same assay, conditions: 50 µM; THP-1; incubation time: 4 h
“MAP4K1_Q92918_494_LFNGCPLR (UniProt Q92918)” was tested, and the “probe-labelled cysteine peptide fold change” value was 0.111.
For “MAP2K1_Q02750_277_ELELMFGCQVEGDAAETPPRPR (UniProt Q02750)”, the “probe-labelled cysteine peptide fold change” value was -0.191.
“MAP3K2_Q9Y2U5_512_LQTICLSGTGMK (UniProt Q9Y2U5)” was tested, and the “probe-labelled cysteine peptide fold change” value was -0.0579.
For “MARC1_Q5VT66_79_GVPVSEAECTAMGLR (UniProt Q5VT66)”, the “probe-labelled cysteine peptide fold change” value was -0.0671.
For “MARS_P56192_309_LRQWNTLYLCGTDEYGTATETK (UniProt P56192)”, the “probe-labelled cysteine peptide fold change” value was -0.0566.
With “LYPLA1_O75608_211_TYEGMMHSSCQQEMMDVK (UniProt O75608)” the “probe-labelled cysteine peptide fold change” value was -0.348.
With “MAP3K3_Q99759_411_EVSALECEIQLLK (UniProt Q99759)” the “probe-labelled cysteine peptide fold change” value was 0.113.
“MAT2A_P31153_104_TCNVLVALEQQSPDIAQGVHLDR (UniProt P31153)” was tested, and the “probe-labelled cysteine peptide fold change” value was 0.0806.
With “MAP1S_Q66K74_440_VLFPGCTPPACLLDGLVR (UniProt Q66K74)” the “probe-labelled cysteine peptide fold change” value was -0.0418.
In the case of “LUC7L_Q9NQ29_97_DLFFELDAMDHLESFIAECDRR (UniProt Q9NQ29)”, the “probe-labelled cysteine peptide fold change” value is reported as 0.00511.
“LTN1_O94822_999_TLPSHLCTSALLSK (UniProt O94822)” was tested, and the “probe-labelled cysteine peptide fold change” value was 0.116.
For “LYST_Q99698_3586_CGVITAYTNR (UniProt Q99698)”, the “probe-labelled cysteine peptide fold change” value was -0.028.
With “MANF_P55145_151_ILDDWGETCK (UniProt P55145)” the “probe-labelled cysteine peptide fold change” value was 0.021.
With “MAPK14_Q16539_162_DLKPSNLAVNEDCELK (UniProt Q16539)” the “probe-labelled cysteine peptide fold change” value was 0.0327.
In the case of “MAP3K4_Q9Y6R4_596_CSAVSWEELK (UniProt Q9Y6R4)”, the “probe-labelled cysteine peptide fold change” value is reported as 0.286.
In the case of “MACF1_Q9UPN3_3173_HQISSSNECK (UniProt Q9UPN3)”, the “probe-labelled cysteine peptide fold change” value is reported as -0.119.
For “MAZ_P56270_339_SHDGAVHKPYNCSHCGK (UniProt P56270)”, the “probe-labelled cysteine peptide fold change” value was -0.188.
With “MATR3_P43243_296_GYPHLCSICDLPVHSNK (UniProt P43243)” the “probe-labelled cysteine peptide fold change” value was 0.00253.
With “MAP4K4_O95819_269_FFSFIEGCLVK (UniProt O95819)” the “probe-labelled cysteine peptide fold change” value was 0.111.
In the case of “MACF1_Q9UPN3_4206_FEQLCLQQQEK (UniProt Q9UPN3)”, the “probe-labelled cysteine peptide fold change” value is reported as -0.00967.
For “LTA4H_P09960_8_PEIVDTCSLASPASVCR (UniProt P09960)”, the “probe-labelled cysteine peptide fold change” value was -0.076.
With “LY75_O60449_922_TWLIDLGKPTDCSTK (UniProt O60449)” the “probe-labelled cysteine peptide fold change” value was 0.0536.
“LYPLA2_O95372_171_DLAILQCHGELDPMVPVR (UniProt O95372)” was tested, and the “probe-labelled cysteine peptide fold change” value was -0.229.
With “MARF1_Q9Y4F3_590_ELCETK (UniProt Q9Y4F3)” the “probe-labelled cysteine peptide fold change” value was -0.157.
“MAP1S_Q66K74_738+743_SASPHDVDLCLVSPCEFEHR (UniProt Q66K74)” was tested, and the “probe-labelled cysteine peptide fold change” value was -0.265.
In the case of “MAP3K3_Q99759_430_IVQYYGCLR (UniProt Q99759)”, the “probe-labelled cysteine peptide fold change” value is reported as 0.0294.
“MAP1S_Q66K74_51_SWDVDPGVCNLDEQLK (UniProt Q66K74)” was tested, and the “probe-labelled cysteine peptide fold change” value was 0.0259.
In the case of “MAP3K4_Q9Y6R4_752_LFCDIAGMLLK (UniProt Q9Y6R4)”, the “probe-labelled cysteine peptide fold change” value is reported as 0.307.
“MAP4K2_Q12851_473_VHMGACFSK (UniProt Q12851)” was tested, and the “probe-labelled cysteine peptide fold change” value was 0.0802.
With “MARS2_Q96GW9_336_ICVHSHWTVCGQK (UniProt Q96GW9)” the “probe-labelled cysteine peptide fold change” value was -0.0522.
With “MAP4_P27816_67_KKPCSETSQIEDTPSSKPTLLANGGHGVEGSDTTGSPTEFLEEK (UniProt P27816)” the “probe-labelled cysteine peptide fold change” value was -0.241.
“MBD4_O95243_324_SLSSGSNFCSEQK (UniProt O95243)” was tested, and the “probe-labelled cysteine peptide fold change” value was 0.164.
“LYST_Q99698_2223_SEDDSPGDESCPR (UniProt Q99698)” was tested, and the “probe-labelled cysteine peptide fold change” value was -0.385.
In the case of “MAP2K2_P36507_384_SEVEEVDFAGWLCK (UniProt P36507)”, the “probe-labelled cysteine peptide fold change” value is reported as -0.211.
With “LY75_O60449_782_GWHFYDDREFIYLRPFACDTK (UniProt O60449)” the “probe-labelled cysteine peptide fold change” value was 0.271.
For “MAPK3_P27361_82_ISPFEHQTYCQR (UniProt P27361)”, the “probe-labelled cysteine peptide fold change” value was 0.0648.
With “LYN_P07948_381_AANVLVSESLMCK (UniProt P07948)” the “probe-labelled cysteine peptide fold change” value was 0.0995.
For “MAEA_Q7L5Y9_314+317_SPDCPVCSR (UniProt Q7L5Y9)”, the “probe-labelled cysteine peptide fold change” value was -0.0107.
“M6PR_P20645_145_AVVMISCNR (UniProt P20645)” was tested, and the “probe-labelled cysteine peptide fold change” value was -0.202.
In the case of “MAEA_Q7L5Y9_333_LAQPLPMAHCANSR (UniProt Q7L5Y9)”, the “probe-labelled cysteine peptide fold change” value is reported as -0.0508.
